# Drug screen on melanoma cell lines: apoptosis marker

From a melanoma drug combination screen (doi:10.1371/journal.pone.0140310); values rounded.

Drug key:
OSI-906 (2000 nM): C[C@]1(O)C[C@@H](c2nc(-c3ccc4ccc(-c5ccccc5)nc4c3)c3c(N)nccn32)C1
decitabine (500 nM): Nc1ncn([C@H]2C[C@H](O)[C@@H](CO)O2)c(=O)n1
tozasertib (30 nM): Cc1cc(Nc2cc(N3CCN(C)CC3)nc(Sc3ccc(NC(=O)C4CC4)cc3)n2)n[nH]1
erlotinib (4000 nM): C#Cc1cccc(Nc2ncnc3cc(OCCOC)c(OCCOC)cc23)c1
midostaurin (400 nM): CO[C@@H]1[C@H](N(C)C(=O)c2ccccc2)C[C@H]2O[C@]1(C)n1c3ccccc3c3c4c(c5c6ccccc6n2c5c31)C(=O)NC4
vincristine (0.5 nM): CC[C@]1(O)C[C@H]2CN(CCc3c([nH]c4ccccc34)[C@@](C(=O)OC)(c3cc4c(cc3OC)N(C=O)[C@H]3[C@@](O)(C(=O)OC)[C@H](OC(C)=O)[C@]5(CC)C=CCN6CC[C@]43[C@@H]65)C2)C1
PF-562271 (400 nM): CN(c1ncccc1CNc1nc(Nc2ccc3c(c2)CC(=O)N3)ncc1C(F)(F)F)S(C)(=O)=O
embelin (6000 nM): CCCCCCCCCCCC1=C(O)C(=O)C=C(O)C1=O

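Human melanoma cell lines in 1,536-well plates were treated with a pair of drugs for 72 h, then fixed, stained and imaged. Each value is the cleaved-PARP-positive fraction of nuclei relative to DMSO-treated wells, in %, so that 100 equals the control and higher values mean more apoptosis. Concentrations were fixed for each drug; these are the higher of two levels. These are primary screening values without error estimates. Basal and induced levels differ widely between cell lines.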
This is part of the screen, not chosen by result.
An entry leaves out what has no value listed here.
A dash means that no value is listed here.

Drugs	WM1745	WM3526	MeWo	WM115	LOX IMVI	SK-MEL-28	UACC-257	COLO 829	RVH-421	WM1716	SK-MEL-5	IST-MEL1	WM3619	A101D	501mel
tozasertib and erlotinib	172	141	169	174	46.7	109	154	56.3	124	14.5	183	53.7	107	93.0	-
vincristine and erlotinib	279	1170	997	1070	117	639	627	182	348	2260	589	127	136	65.9	-
PF-562271 and midostaurin	208	165	150	850	94.9	66.3	48.3	141	159	579	95.0	68.6	145	184	-
embelin and decitabine	-	96.7	223	75.8	139	222	105	346	198	92.6	266	123	128	263	87.3
OSI-906 and erlotinib	242	293	96.9	290	57.4	39.0	40.9	86.9	161	53.6	519	102	124	113	-
decitabine and OSI-906	176	244	132	263	107	107	104	131	52.8	105	145	77.9	149	71.1	-
erlotinib and decitabine	150	280	163	432	224	36.4	265	191	88.5	130	320	111	122	106	-
OSI-906 and PF-562271	211	88.9	99.8	378	116	55.3	66.1	152	256	117	74.3	599	123	62.1	-
OSI-906 and vincristine	115	732	161	681	97.0	92.8	290	56.4	88.8	853	227	109	119	205	-
PF-562271 and embelin	-	74.6	94.8	58.4	41.2	157	127	219	118	211	137	154	123	379	138
tozasertib and midostaurin	272	160	146	1060	126	195	110	77.1	140	525	451	144	311	229	-
embelin and erlotinib	244	91.8	82.1	256	88.1	177	37.8	130	282	38.1	107	107	116	75.2	122
vincristine and tozasertib	154	596	205	351	47.5	36.7	38.8	125	128	124	201	208	152	204	-
OSI-906 and tozasertib	135	156	84.3	264	33.8	87.4	36.8	171	88.5	88.6	91.1	101	127	328	-
erlotinib and PF-562271	218	153	136	186	140	325	78.1	226	154	90.0	357	69.3	126	123	-
decitabine and midostaurin	453	203	266	637	98.1	273	255	157	233	448	172	147	144	272	-
PF-562271 and decitabine	102	39.8	146	163	208	91.5	94.8	158	130	126	110	175	107	203	-
midostaurin and vincristine	169	1810	178	337	123	177	128	167	242	1060	244	43.8	132	225	-
OSI-906 and midostaurin	188	114	111	105	79.4	169	174	129	56.5	257	75.2	43.2	122	120	-
vincristine and embelin	-	876	802	555	97.3	779	45.9	167	238	972	182	236	286	207	1550
OSI-906 and embelin	-	95.3	69.8	72.4	90.7	122	36.4	162	208	79.8	192	117	78.7	87.4	76.4
vincristine and decitabine	118	407	120	250	55.2	63.9	67.2	271	118	170	312	64.0	131	188	-
erlotinib and midostaurin	613	811	280	736	66.9	283	357	132	47.9	346	2050	166	170	214	-

For reference, 3 entries once more:

{"drugs": "OSI-906 and embelin", "WM3526": 95.3, "MeWo": 69.8, "WM115": 72.4, "LOX IMVI": 90.7, "SK-MEL-28": 122, "UACC-257": 36.4, "COLO 829": 162, "RVH-421": 208, "WM1716": 79.8, "SK-MEL-5": 192, "IST-MEL1": 117, "WM3619": 78.7, "A101D": 87.4, "501mel": 76.4}
{"drugs": "midostaurin and vincristine", "WM1745": 169, "WM3526": 1810, "MeWo": 178, "WM115": 337, "LOX IMVI": 123, "SK-MEL-28": 177, "UACC-257": 128, "COLO 829": 167, "RVH-421": 242, "WM1716": 1060, "SK-MEL-5": 244, "IST-MEL1": 43.8, "WM3619": 132, "A101D": 225}
{"drugs": "vincristine and tozasertib", "WM1745": 154, "WM3526": 596, "MeWo": 205, "WM115": 351, "LOX IMVI": 47.5, "SK-MEL-28": 36.7, "UACC-257": 38.8, "COLO 829": 125, "RVH-421": 128, "WM1716": 124, "SK-MEL-5": 201, "IST-MEL1": 208, "WM3619": 152, "A101D": 204}